Measurements reported in PubChem BioAssay AID504791 (Drosophila RNAi Screening Center, 2011).
Aim: 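Genes whose knock-down strengthens or weakens small-RNA reporter silencing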 (primary screen). Cells: Drosophila S2-derived reporter cells. Reagent: long dsRNA against Drosophila genes, about 150-250 ng dsRNA per well (siRNA assay); about 80-120 ng (miRNA assay). Duration: about 5 days (siRNA assay); about 4 days (miRNA assay). Treatment: copper sulfate induction of reporters: 25 µM (siRNA assay); 200 mM stated (miRNA assay), 1-2 days before reading. Measurement: 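Dual luciferase assay: Renilla to firefly signal ratio in each well, scaled to the mean ratio of its plate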. Hit rule: 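First-pass picks had plate-scaled ratios over 1.5 for the siRNA assay, over 1.6 for the miRNA assay, or under 0.6; two distinct dsRNAs had to score alike on retest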.
The deposit covers about 23,000 reagents; below is a random part of those with a known target gene and a result. In the full data, 199 (0.86%) were called active. 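Plate-scaled ratios behind the calls are not deposited; printed light signals are raw; many rows marked increased or decreased are still called inactive.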 Entries without a mark were called inactive. Reagents against one gene are numbered here. A plus sign joins genes that one reagent is predicted to hit. The record does not give: the direction of the score.

no.	target	dsRNA no.	miRNA reporter change	stable assay Renilla, run 1 (luminescence)	stable assay firefly, run 1 (luminescence)
1	Chd3	1		6687	4.34e5
2	kst (karst)	1		7664	5.82e5
3	exex (extra-extra)	1		6166	3.46e5
4	l(2)k09022 (lethal (2) k09022)	1		11739	3.53e5
5	Hdc (Histidine decarboxylase)	1		8462	4.17e5
6	Rph (Rabphilin)	1		4311	3.34e5
7	Zip89B (Zinc/iron regulated transporter-related protein 89B)	1		8563	4.64e5
8	CG7453	1		6431	4.74e5
9	CG33483	1		8188	4.22e5
10	CG15741	1		5363	3.25e5
11	Or13a (Odorant receptor 13a)	1		4660	3.58e5
12	Hacd1 (3-hydroxyacyl-CoA dehydratase 1)	1		7207	3.50e5
13	CG14866	1		7112	3.54e5
14	Vha14-1 (Vacuolar H[+] ATPase 14kD subunit 1)	1		6654	4.01e5
15	CG42518 + MED9	1		9500	3.57e5
16	Obp56b (Odorant-binding protein 56b)	1		4975	2.42e5

Taken from above:
Under “stable assay Renilla, run 1 (luminescence)”, CG7453 reads 6431
Value for CG42518 + MED9 in “stable assay firefly, run 1 (luminescence)”: 3.57e5

The list goes on:
no.	target	dsRNA no.	miRNA reporter change	stable assay Renilla, run 1 (luminescence)	stable assay firefly, run 1 (luminescence)
17	CG9590	1		10903	4.89e5
18	Tsen34 + Trl	1		9046	3.11e5
19	CG43861 + CG12508 (retired record)	1		7322	3.90e5
20	Adar (Adenosine deaminase acting on RNA)	1		6224	3.50e5
21	Axn (Axin)	1		4351	3.64e5
22	nol (no optic lobe)	1		8611	4.89e5
23	tio (tiptop)	1		7487	3.96e5
24	CG34133	1		7790	3.17e5
25	CG34133	2		8092	6.26e5
26	Rtc1	1		9561	6.12e5
27	GramD1B (GRAM domain containing 1B)	1		7174	3.68e5
28	GramD1B (GRAM domain containing 1B)	2		1.89e5	1.07e5
29	GramD1B (GRAM domain containing 1B)	3	reporter ratio raised past the hit cutoff		
30	jumu (jumeau)	1		4215	3.08e5
31	Dnaaf5 (Dynein axonemal assembly factor 5)	1		5155	4.57e5
32	jp (junctophilin)	1		5798	3.43e5
33	jp (junctophilin)	2		5707	2.77e5
34	CG15172	1		7542	5.23e5
